Results on one molecule are retold here after paper PMC11952966 (2025).

As usually defined, the KD is the concentration at which binding is half-saturated. Low readings indicate a tighter complex, high ones a looser complex.

The structures appear in SMILES notation.

The subject of the assay is HM10.2M1 (DNA, aptamer) GGGACGACAGGGATTCGGTTCGTGTCTAACAGTGCCTCGTACGTCGTCCC
Kind of assay: ITC.

In the case of `CN1CC[C@]23c4c5ccc(O)c4O[C@H]2[C@@H](O)C=C[C@H]3[C@H]1C5`, the dissociation constant KD was 17.8 µM.
